# Screening data, single-dose tests

By UniProt entry, the sequences of proteins in these tests, tags left out.
UniProt P9WPC5, whole entry: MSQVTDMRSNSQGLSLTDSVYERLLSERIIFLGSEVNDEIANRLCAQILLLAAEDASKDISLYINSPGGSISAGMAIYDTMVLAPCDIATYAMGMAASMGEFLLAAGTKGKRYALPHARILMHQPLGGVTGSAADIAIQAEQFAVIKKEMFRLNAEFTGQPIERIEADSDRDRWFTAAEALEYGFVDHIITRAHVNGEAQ
UniProt P9WPC3, whole entry partner: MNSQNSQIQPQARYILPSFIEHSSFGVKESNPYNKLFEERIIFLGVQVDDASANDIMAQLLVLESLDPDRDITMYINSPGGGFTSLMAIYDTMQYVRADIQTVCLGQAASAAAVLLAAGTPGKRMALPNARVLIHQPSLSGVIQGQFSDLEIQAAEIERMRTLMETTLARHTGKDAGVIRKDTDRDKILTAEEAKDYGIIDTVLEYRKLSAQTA
UniProt P9WFT3, whole entry: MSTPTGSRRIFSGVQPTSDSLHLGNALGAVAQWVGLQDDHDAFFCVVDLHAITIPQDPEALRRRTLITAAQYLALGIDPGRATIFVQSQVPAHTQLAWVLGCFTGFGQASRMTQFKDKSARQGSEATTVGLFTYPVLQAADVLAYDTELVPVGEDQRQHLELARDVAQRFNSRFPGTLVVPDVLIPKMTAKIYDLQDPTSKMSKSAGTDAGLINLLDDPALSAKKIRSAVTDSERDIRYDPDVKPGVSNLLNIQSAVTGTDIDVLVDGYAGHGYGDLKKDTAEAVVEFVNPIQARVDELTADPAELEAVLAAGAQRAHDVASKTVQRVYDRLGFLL

ClpP1P2: 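Protease assay of ClpP1P2, read by the AMC dye that it sets free. Target: ClpP1P2, Mycobacterium tuberculosis (UniProt P9WPC5 and UniProt P9WPC3). Tested at 50 µM. Direction is inferred from only a few compounds that gave an IC50; most scored high, so higher reads as stronger inhibition. Most other retested compounds had strongly negative values. Of about 69,000 compounds tested this way, about 10 (0.015%) reached 50% or more in at least one test.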
MtTrpRS: 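Tryptophan-tRNA ligase, Mycobacterium tuberculosis (UniProt P9WFT3). Enzyme assay of tryptophanyl-tRNA synthetase; the read-out is not stated. Compounds at 10 µM. Direction is not recorded; retested compounds ran higher, which suggests that high means inhibition. Of about 65,000 compounds tested this way, about 64 (0.098%) reached 50% or more in at least one test.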

The filed quantity is “Percent Effect” (%).
The record does not define 0% and 100%; most values in the screen are far below 50% and negative numbers occur (in some assays of this library far below -100).
This is an unselected part of the compounds tested.

- COc1ccsc1C(=O)N1CCCC(n2nc(C)nc2C)C1 (stereo not given) : ClpP1P2: -8.6%; MtTrpRS: -1.81%
- CCCNC(=O)CSc1nnc2[nH]c(=O)cc(CC)n12 : ClpP1P2: 6.975%; MtTrpRS: -0.9266%
- CCn1cc2c(n1)C(COC)CN(c1ccc(C)nn1)C2 (stereo not given) : ClpP1P2: 6.98%; MtTrpRS: -3.315%
- CC1(C)CN=C(N2CCN(CC3CCCCO3)CC2)S1 (stereo not given) : ClpP1P2: 3.086%; MtTrpRS: -0.2937%
- CN1CCCC1c1cncc(C(=O)NCCN2CCCCC2)n1 (stereo not given) : ClpP1P2: -0.5572%; MtTrpRS: -9.841%
- CCS(=O)(=O)N1CCC(c2nnc(C(F)(F)F)o2)CC1 : ClpP1P2: -20.3%; MtTrpRS: -1.656%
- Cc1cc(C)n(CC(=O)N2CCCCC2CCc2cccs2)c(=O)n1 (stereo not given) : ClpP1P2: -11.08%; MtTrpRS: 1.29%
- Cc1ncc(S(=O)(=O)Nc2ccnn2C(C)C)[nH]1 : ClpP1P2: -11.4%; MtTrpRS: -2.015%
- O=C(CN1CCN(c2ccccc2F)CC1)Nc1ccc(Cl)cn1 : ClpP1P2: 0.5317%; MtTrpRS: 7.06%
- COc1cccc(CNCc2cccnc2)c1 : ClpP1P2: 12.34%; MtTrpRS: 5.074%
- Cc1cc(CN2CCC(C(=O)O)(n3ccc(-c4ccco4)n3)CC2)on1 : ClpP1P2: -7.038%; MtTrpRS: 4.417%
- Brc1ccc(CNCc2nnc3n2CCC3)s1 : ClpP1P2: -6.754%; MtTrpRS: 14.09%
- COc1cccc(CN2CCCC(Cn3nc(C)nc3C)C2)c1 (stereo not given) : ClpP1P2: -7.8%; MtTrpRS: -4.172%
- NC(=O)c1ccc2c(c1)nc1n2CCN(Cc2ccccc2)C1 : ClpP1P2: -6.442%; MtTrpRS: -4.979%
- CCn1c(C)cc(C(=O)NCc2ccc(CS(C)(=O)=O)cc2)c1C : ClpP1P2: -8.231%; MtTrpRS: -3.783%
- Cc1noc(CN2CC=C(c3c[nH]c4ncccc34)CC2)n1 : ClpP1P2: -10.76%; MtTrpRS: 0.2154%
- Cc1ccnc(NCCNC(=O)C2CC3(CCNCC3)CN2C)c1 (stereo not given) : ClpP1P2: -13.27%; MtTrpRS: 5.126%
- N#Cc1c(C2CC2)cc(-c2ccc(F)c(F)c2)nc1N : ClpP1P2: -32.5%; MtTrpRS: -0.6803%
- CN(C(=O)COCc1ccccc1)C1CCN(CC2CCOC2)CC1 (stereo not given) : ClpP1P2: -1.393%; MtTrpRS: -7.235%
- CCOc1ncccc1-c1cc2c(cc1C(N)=O)OCO2 : ClpP1P2: -8.336%; MtTrpRS: -3.748%
- Clc1ccc(CN2CCc3c(ncn3C3CC3)C2)c2ncccc12 : ClpP1P2: -6.03%; MtTrpRS: -1.342%
- CCS(=O)(=O)NCCNC(=O)N(Cc1ccc(C)o1)C(C)C : ClpP1P2: 7.223%; MtTrpRS: -2.037%
- Fc1ccc(-c2cnc(C3CCCN3)cn2)cc1 (stereo not given) : ClpP1P2: 9.855%; MtTrpRS: -1.935%
- CCCc1ccc2oc(C(=O)N3CCCN(C)CC3)c(C)c2c1 : ClpP1P2: -2.89%; MtTrpRS: 1.342%
- O=C(NCC(F)(F)F)c1ccncc1 : ClpP1P2: 19.55%; MtTrpRS: 0.5663%
- COC(=O)C(C)Sc1nnnn1C1CCOCC1 (stereo not given) : ClpP1P2: 4.209%; MtTrpRS: -4.187%
- COCCCN1CCC(NC2CSCCc3ccccc32)CC1 (stereo not given) : ClpP1P2: 10.67%; MtTrpRS: -1.019%
- O=C(CN1CCS(=O)(=O)CC1)NC1CCCOc2ccccc21 (stereo not given) : ClpP1P2: -4.352%; MtTrpRS: -4.408%
- CCCn1cc(-c2cc(-c3c[nH]cn3)c(C#N)c(N)n2)c(C)n1 : ClpP1P2: -61.32%; MtTrpRS: 5.153%
- CCOc1ccc(Cl)c(C(=O)NCc2ccc(C(=O)NC)cc2)n1 : ClpP1P2: 9.31%; MtTrpRS: 3.192%
- Cc1ccc(C(=O)N(C)CCOc2ccccc2F)c(=O)[nH]1 : ClpP1P2: 10.03%; MtTrpRS: 7.597%
- Cc1nn(CC(=O)O)c2nccc(-c3ccc(F)cc3)c12 : ClpP1P2: 5.158%; MtTrpRS: 2.136%
- COc1ccc(Cl)cc1-c1cc(NC(=O)C2COCCO2)[nH]n1 (stereo not given) : ClpP1P2: -4.819%; MtTrpRS: -5.639%
- Cn1ccc(C(=O)NCc2cccc(Cn3ccnc3)c2)cc1=O : ClpP1P2: 11.25%; MtTrpRS: 3.359%
- CO[C@H]1CNC[C@@H]1NC(=O)c1cc(C)nc2ccc(C)cc12 : ClpP1P2: -3.667%; MtTrpRS: 9.992%
- Cc1occc1C(=O)N1CCC2(CCCN(c3ncc(F)cn3)C2)C1 (stereo not given) : ClpP1P2: -24.73%
- O=c1[nH]ncc(NCCOc2cccc(Br)c2)c1Cl : ClpP1P2: -2.627%; MtTrpRS: -3.818%
- CN(CC(=O)N1CCCC1c1noc(C2CC2)n1)Cc1ccccc1 (stereo not given) : ClpP1P2: -1.45%; MtTrpRS: -6.105%

2 of the entries, repeated:

- Cc1ncc(S(=O)(=O)Nc2ccnn2C(C)C)[nH]1 : ClpP1P2: -11.4%; MtTrpRS: -2.015%
- N#Cc1c(C2CC2)cc(-c2ccc(F)c(F)c2)nc1N : ClpP1P2: -32.5%; MtTrpRS: -0.6803%

Data taken from ChEMBL document CHEMBL3988442, “University of Dundee, Small-Polar-MMV Screening Library” (2021).